Laboratory results as given in patent US10632101B2, “Methods and compositions for supporting endogenous systems related to life span” (USANA Health Sciences, Inc., priority 2016, dated 2020).
At least one compound was matched to its structure with a doubt left.

Tests used:
C. elegans strain CB5586 = assay: Phenotypic lifespan screening in C. elegans; format: in vivo
Protocol: Dilutions of the test formulations were applied to individual populations of C. elegans and the lifespan of each population was monitored. Any changes in the lifespan of an individual population compared to a control population were recorded and correlated to the respective test formulation (N356 or N357) and the respective dilution (0.1 mg/ml, 1 mg/ml, and 10 mg/ml).
The N256 and N357 formulations were each prepared as individual 100 mg/ml stock solutions in dimethyl sulfoxide (DMSO). Serial dilutions of each stock solution were then prepared at 0.1 mg/ml, 1 mg/ml, and 10 mg/ml in DMSO. Control solutions of DMSO only were also prepared. Synchronous aged adult populations of C. elegans strain CB5586 worms were prepared. […]
Each worm population was then monitored by fluorescent imaging to determine the number of living and dead worms as a function of time. The fluorescent imaging was analyzed by software that recognized and counted worms based on their fluorescent intensity compared to background fluorescence. […] The ability to distinguish between living and dead worms allowed the number of living worms and a cumulative number of dead worms to be monitored against time. Worm populations from a selection of fluorescent images were manually checked to verify that the software had accurately counted the number of living and dead worms. […]

mTOR = target: T1, mTOR (Homo sapiens, UniProt P42345); conditions: cited from earlier work
T1 construct: host or cells: isolated cells in culture (not specified)

mice = conditions: cited from earlier work

C[C@@H]1O[C@@H](OC[C@H]2O[C@@H](Oc3c(-c4ccc(O)c(O)c4)oc4cc(O)cc(O)c4c3=O)[C@H](O)[C@@H](O)[C@@H]2O)[C@H](O)[C@H](O)[C@H]1O [N346, Rutin hydrate]
Statistically Significant Result (C. elegans strain CB5586; 10 mg/ml compared to DMSO control): No statistical difference
effect on chronological lifespan (C. elegans strain CB5586; 0.1 and 10 mg/ml tested): significant negative effect on chronological lifespan

OCCc1ccc(O)c(O)c1 [hydroxytyrosol]
mTOR inhibition, mitophagy and mitochondrial turnover (mTOR): inhibit mTOR, up-regulate mitophagy, and increase the rate of mitochondrial turnover

CO[C@H]1C[C@@H]2CC[C@@H](C)[C@@](O)(O2)C(=O)C(=O)N2CCCC[C@H]2C(=O)O[C@H]([C@H](C)C[C@@H]2CC[C@@H](O)[C@H](OC)C2)CC(=O)[C@H](C)/C=C(\C)[C@@H](O)[C@@H](OC)C(=O)[C@H](C)C[C@H](C)/C=C/C=C/C=C/1C [rapamycin]
effect on lifespan (mice): increase lifespan
